Assay results taken from patent US20250289885A1.
No constants are given. Whether binding was seen depends on the method and setting. Some entries that bind do so weakly or less than the wild type.

By UniProt entry, the sequences of proteins in these tests, tags left out. Residues count along the entry.
UniProt P46531, residues 19-1762: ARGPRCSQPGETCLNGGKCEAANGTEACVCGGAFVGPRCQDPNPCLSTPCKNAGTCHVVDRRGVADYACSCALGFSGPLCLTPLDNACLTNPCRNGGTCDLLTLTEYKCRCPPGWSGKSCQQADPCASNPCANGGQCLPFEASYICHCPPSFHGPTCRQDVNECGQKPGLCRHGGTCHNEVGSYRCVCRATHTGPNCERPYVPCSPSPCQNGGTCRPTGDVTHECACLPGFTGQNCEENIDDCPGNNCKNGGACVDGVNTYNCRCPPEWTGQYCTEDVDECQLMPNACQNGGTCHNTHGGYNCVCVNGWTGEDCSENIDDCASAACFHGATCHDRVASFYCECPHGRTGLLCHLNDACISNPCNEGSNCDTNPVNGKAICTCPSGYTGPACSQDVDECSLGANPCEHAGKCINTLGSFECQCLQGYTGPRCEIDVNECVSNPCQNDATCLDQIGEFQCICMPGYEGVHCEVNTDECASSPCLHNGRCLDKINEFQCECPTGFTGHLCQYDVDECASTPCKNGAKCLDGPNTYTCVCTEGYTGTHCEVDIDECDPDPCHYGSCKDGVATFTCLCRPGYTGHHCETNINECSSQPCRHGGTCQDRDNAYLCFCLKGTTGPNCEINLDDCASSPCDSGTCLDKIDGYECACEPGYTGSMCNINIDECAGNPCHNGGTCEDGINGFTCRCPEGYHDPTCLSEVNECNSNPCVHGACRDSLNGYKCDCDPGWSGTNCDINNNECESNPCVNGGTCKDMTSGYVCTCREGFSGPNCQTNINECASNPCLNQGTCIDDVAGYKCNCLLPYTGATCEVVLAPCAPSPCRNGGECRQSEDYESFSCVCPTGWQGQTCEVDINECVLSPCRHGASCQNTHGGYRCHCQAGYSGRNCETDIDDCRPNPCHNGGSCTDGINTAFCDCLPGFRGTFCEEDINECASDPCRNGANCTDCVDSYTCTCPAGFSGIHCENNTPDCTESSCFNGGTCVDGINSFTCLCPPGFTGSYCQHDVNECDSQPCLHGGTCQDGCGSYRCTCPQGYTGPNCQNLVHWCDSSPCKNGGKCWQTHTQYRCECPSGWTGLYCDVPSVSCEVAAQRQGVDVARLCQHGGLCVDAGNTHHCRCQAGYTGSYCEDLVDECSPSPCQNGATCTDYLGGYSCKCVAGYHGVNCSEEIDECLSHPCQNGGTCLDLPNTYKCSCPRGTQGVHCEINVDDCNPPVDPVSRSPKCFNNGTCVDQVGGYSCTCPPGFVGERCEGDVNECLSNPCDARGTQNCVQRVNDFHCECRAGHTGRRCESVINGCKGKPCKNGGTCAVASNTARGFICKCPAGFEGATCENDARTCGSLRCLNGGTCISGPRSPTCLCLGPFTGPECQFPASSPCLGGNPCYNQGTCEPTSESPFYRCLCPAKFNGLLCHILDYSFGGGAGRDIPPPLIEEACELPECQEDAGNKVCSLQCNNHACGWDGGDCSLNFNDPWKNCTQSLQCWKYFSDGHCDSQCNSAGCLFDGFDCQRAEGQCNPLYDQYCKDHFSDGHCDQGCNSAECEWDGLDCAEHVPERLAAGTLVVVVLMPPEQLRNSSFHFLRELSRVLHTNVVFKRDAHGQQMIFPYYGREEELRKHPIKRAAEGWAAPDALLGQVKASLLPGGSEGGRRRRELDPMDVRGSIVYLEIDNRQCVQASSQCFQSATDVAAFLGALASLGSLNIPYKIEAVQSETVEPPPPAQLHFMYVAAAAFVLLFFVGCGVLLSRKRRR

Key:
[1] = molecular target: human Notch1-derived receptor overexpressed on CHO-K1 cells (human) (UniProt P46531); test: fluorescence imaging of JFX650-labelled probody on CHO-K1 cells overexpressing a human Notch1-derived receptor
[2] = molecular target: human Notch1-derived receptor overexpressed on CHO-K1 cells (human) (UniProt P46531); test: fluorescence microscopy of JFX650-labelled probody on CHO-K1 cells overexpressing a human Notch1-derived receptor

B1: Brontictuzumab-based probody with the V1667D mutant human Notch1 NRR, TEV protease-cleaved (scFv, not shown: large carriers; small tags and cut ends)
scFv: QVQLVQSGAEVKKPGASVKISCKVSGYTLRGYWIEWVRQAPGKGLEWIGQILPGTGRTNYNEKFKGRVTMTADTSTDTAYMELSSLRSEDTAVYYCARFDGNYGYYAMDYWGQGTTVTVSSGGSSRSSSSGGGGSGGGGQAVVTQEPSLTVSPGGTVTLTCRSSTGAVTTSNYANWFQQKPGQAPRTLIGGTNNRAPGVPARFSGSLLGGKAALTLSGAQPEDEAEYYCALWYSNHWVFGGGTKLTVL
modifications: HaloTag labelled with JFX650 dye
binding [1]: binds
binding [2]: binds
